Measured values published in PubChem BioAssay AID338 (DTP/NCI, 2004).
The list does not hold the whole screen: it gathers some chemical classes. Not every dose and run of a compound is shown. T/C gives the treated animals as a percentage of the vehicle group. Some doses have a count of surviving animals in place of a T/C: the source holds a T/C of zero for them, seemingly a mark for toxic or unscored doses. Some survivor counts are full or nearly so, which does not show that the dose was tolerated: survival well below the control is almost never listed, so the zero probably covers shortened survival too. Survivors were counted at the toxicity check, usually on the fifth day, unless a day is given; later deaths do not show. Schedule codes are those of the source, taken here to give the interval after Q, in days (D) or hours (H), and the number of doses after X. Some entries were tested several times; the values are given in rising order. Where survival is the endpoint, this PubChem deposit counts one and a half times the control or more as active, and values a quarter to a half above the control carry no call in these data; other NCI protocols may use other cut-offs.

System: BDF1 mice, P388 leukemia (terephthalanilide-resistant), survival T/C
Assay: NCI In Vivo Anticancer Drug Screen. Data for tumor model P388 Leukemia resistant to A Terephthalanilide; NSC 38280 (intraperitoneal) in B6D2F1 (BDF1) mice
Settings: T/C endpoint: median survival time, schedule: Q01DX010 (ip), vehicle: saline, higher T/C = longer survival
Protocol: The antitumor activity of compounds was measured in mice bearing transplantable tumors. Survival or tumor size were measured and the results are expressed as the measurement made in the treated group (T) divided by the measurement made in the vehicle treated control group (C). The tumor model used in this assay is P388 Leukemia resistant to A Terephthalanilide; NSC 38280 (intraperitoneal) in B6D2F1 (BDF1) mice

SMILES: CN(N=O)C(=N)N[N+](=O)[O-]
- T/C (dose: 8.0 mg/kg/injection): 120 and 125 % of control
- T/C (dose: 16.0 mg/kg/injection): 135 % of control
- survivor count (dose: 16.0 mg/kg/injection): 6 of 6
- survivor count (dose: 32.0 mg/kg/injection): 6 of 6
- survivor count (dose: 64.0 mg/kg/injection): 3 of 6 and 5 of 6

SMILES: NC1CCCCC1.O=P(O)(N(CCCl)CCCl)N1CC1
- T/C (dose: 1.25 mg/kg/injection): 109 % of control
- T/C (dose: 2.5 mg/kg/injection): 100 and 113 % of control
- T/C (dose: 5.0 mg/kg/injection): 100 and 109 % of control
- T/C (dose: 10.0 mg/kg/injection): 122 and 136 % of control
- T/C (dose: 20.0 mg/kg/injection): 100 % of control
